Binding data for three molecules are collected here from publication PMC6420625.

The target of assay [1] is VAND ROP5B3, yeast two-hybrid fusion (Toxoplasma gondii, strain VAND). The experiment in a line: two-hybrid; S. cerevisiae PJ69-4α, Gal4 AD (pGAD-C3) and BD (pGBD-C3) fusions; growth on triple dropout medium (SD/-Leu/-Trp/-His) with 1 mM 3-AT, 5 to 10 days at 30 °C.
Assay [2] has as its target VAND ROP5A, yeast two-hybrid fusion (Toxoplasma gondii, strain VAND). Described as above.
Assay [3] concerns the target VAND ROP5B2, yeast two-hybrid fusion (Toxoplasma gondii, strain VAND). The assay is described as above.
Assay [4] addresses VAND ROP5B1, yeast two-hybrid fusion (Toxoplasma gondii, strain VAND). Described as above.
In assay [5] the target is ROP5C (T. gondii RH), β-lactamase fragment fusion (PCA) (Toxoplasma gondii, strain RH). The experiment in a line: split reporter; protein-fragment complementation assay with split TEM-1 β-lactamase (BlaN/BlaC) in co-transfected HEK293T cells; nitrocefin hydrolysis rate in lysates.
The target of assay [6] is ROP5A (T. gondii RH), yeast two-hybrid fusion (Toxoplasma gondii, strain RH). As to the kind of experiment: two-hybrid; S. cerevisiae PJ69-4α, Gal4 AD (pGAD-C3) and BD (pGBD-C3) fusions; growth on triple dropout medium (SD/-Leu/-Trp/-His) with 1 mM 3-AT, 5 to 10 days at 30 °C.
In assay [7] the target is ROP5C (T. gondii RH), yeast two-hybrid fusion (Toxoplasma gondii, strain RH). The description is as above.

Results are given in words; binding and its absence hold for the method and conditions named. For some assays here: Binding calls can cover weak binding; strength is not graded here. Where a sequence is shown, tags or fusion partners need not be part of it. For some assays here: In cells and extracts the contact can be indirect.

B1: VAND GRA7, yeast two-hybrid fusion (protein, UniProt O00933 1-236)
chain: MARHAIFSALCVLGLVAAALPQFATAATASDDELMSRIRNSDFFDGQAPVDSLRPTNAGVDSKGTDDHLTTSMDKASVESQLPRREPLETEPDEQEEVHFRKRGVRSDAEVTDDNIYEEHTDRKVVPRKSEGKRSFKDLLKKLALPAVGMGASYFAADRLVPELTEEQQRGDEPLTTGQNVGTVLGFAALAAAAAFLGMGLTRTYRHFSPRKNRSRQPALEQEVPESGEDGEDARQ
Consider B1, for which the binding entry in assay [1], in assay [2], in assay [3] and in assay [4] was “no binding” throughout.

B2: Irgb2-b1CIM, β-lactamase fragment fusion (PCA) (protein, UniProt U5NGE1 1-835)
chain: MGQTSSSTSPPKEDPPLTFQVKTKVLSQELIASIESSLENGNLQETVSAISSALGDIEKAPLNIAVMGETGAGKSSLINALQGVGDDEEGAAASTGIIHTTTERTPYTYTKFPSVTLWDLPGIGSTAFQPHDYLKKIEFEEYDFFIIVSAIRIKQSDIELAKAIVQMNRGLYFVKTKTDSDLVNEKRCNPMRFNRENTLKSIRICLSSNLKERFQQEPPVFLVSNFDVSDFDFPKLESTLLSQLPAYKHQIFMSTLQVVINAIVDRKRDMLKQKIWKESIMPRAWATIPSRGLTQKDMEMLQQTLNDYRSSFGLDEASLENIAEDLNVTLEELKANIKSPHLLSDEPDTSLTEKLLKYIGNPYFSKVFHLQNYFIDTVASDVKIILSKEELFTEQHPPLNTTTCQTSTGRTSQITAQLLEFNFKNFFKNFKKESKILSEETITLIESHLENKNLKEALTVISHALRNIDKAPLNIAVTGETGTGKSSFINALRGISSEEKDAAPTGVIETTMKRTPYPHPKLPNVTIWDLPGIGSTNFPPQNYLTEMKFGEYDFFIIISATRFKEIDAHLAKAIAKMNTKFYFVRTKIDQDVSNEQRSKPRSFNRDSVLKKIKDECLGLLQKVLSSQPPIFLVSNFDVSDFDFPKLETTLLRELPAHKRHLFMMSLHSVTETTIARKRDFLRQKIWLEALKAGVWATIPLGGLVRDKMQKLEETLNLYRSYFGLDEASLENIAKDFNVSVNEIKAHLRSLQLLTKNNDMSFKEKLLKYIEYISCVTGGPLASGLYFRKTYYWQSLFIDTVASDAKSLLNKEEFLSEKPGSCLSDLPEYWETGMEL
B2: the binding result in assay [5] was “binds”.

B3: Irgb2-b1CIM, yeast two-hybrid fusion (protein, UniProt U5NGE1 1-835)
chain: B2 chain
With B3, the binding result was “no binding” in assay [1]; “no binding” in assay [6]; “no binding” in assay [2]; “binds” in assay [7]; “no binding” in assay [3]; “no binding” in assay [4].
